{"source": "PubChem BioAssay AID493014", "about": "(National Center for Advancing Translational Sciences (NCATS), 2011)", "note": "The whole screen tested about 340,000 compounds, of which about 170 (0.05%) were called active. The shares of active, inactive and inconclusive entries below differ from those in the screen. The call rests on the fitted dose curve; in most records, active means well fitted inhibition curve with a large enough effect in the signal ratio, with a control signal flat (not every such curve was filed as active); inconclusive means small, poorly fitted or top-dose-only effect, or effect the other way, or a change in a side signal; inactive means flat fitted curve, though single readings scatter; the % refers to the signal ratio. A potency beside an inconclusive call is a rough fit, not a confirmed value. Potency means the concentration at half of the fitted maximal effect."}
{"test": "qHTS Assay to Find Inhibitors of Chronic Active B-Cell Receptor Signaling;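 on activity change, negative = inhibition: plate controls were basal doxycycline-induced cells for no effect and cells given 10 µM MG132 for full effect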", "conditions": "ABC-DLBCL IkBa-CBG/CBR reporter, luminescence ratio (green luciferase fused to IkBa over red control in TMD8 lymphoma cells), 4 h; activity change, negative = inhibition: at 46.1 µM (top of the series) unless noted", "in_short": "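TMD8 ABC-DLBCL cells carrying doxycycline-inducible green luciferase fused to IkappaBalpha plus unfused red luciferase were exposed to compounds (up to 46 uM) for 4 hrs at 37C. Activity came from the overlap-corrected green/red luminescence ratio.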"}
{"smiles": "O=c1c2ccccc2nc2n1C(CSCc1cccc(C(F)(F)F)c1)CS2", "note": "(configuration not stated)", "activity change, negative = inhibition": "inconclusive: 0.367%"}
{"smiles": "COc1ccc(Cl)cc1N(CC(=O)Nc1ccccc1C(=O)NCc1ccco1)S(C)(=O)=O", "activity change, negative = inhibition": "inconclusive: 11.8%"}
{"smiles": "CC(=O)Nc1cccc(OCc2cnc(Cl)s2)c1", "activity change, negative = inhibition": "inconclusive: 1.76%"}
{"smiles": "c1ccc(-c2nnc(-c3c[nH]c4ccccc34)nc2-c2ccccc2)cc1", "activity change, negative = inhibition": "inconclusive: 25.7%"}
{"smiles": "CC1=CCC2C(=O)N(c3ccc4ccccc4n3)C(=O)C2C1", "note": "(configuration not stated)", "activity change, negative = inhibition": "inactive: 4.96%"}
{"smiles": "Cc1ccc(NC(=O)CSc2ncnc3ccccc23)cc1S(=O)(=O)N1CCCCCC1", "activity change, negative = inhibition": "inconclusive: -17.4%"}
{"smiles": "CC(C)(C)OC(=O)NC(CNCc1ccccc1)Cc1ccccc1", "note": "(configuration not stated)", "activity change, negative = inhibition": "inactive: 12.1%"}
{"smiles": "CCCCCCOc1ccc(N2C(=O)CC(N(CCc3ccc(S(N)(=O)=O)cc3)C(C)=O)C2=O)cc1", "note": "(configuration not stated)", "Potency": "inconclusive: 14.1 µM [falling, partial curve]"}
{"smiles": "O=C(/C=C/c1ccccc1)NCCSCc1ccccc1Cl", "activity change, negative = inhibition": "inconclusive: -0.458%"}
{"smiles": "O=C(Nc1ccc(Cl)c(C(F)(F)F)c1)C(=O)N1CCCCC1", "activity change, negative = inhibition": "inconclusive: -12.3%"}
{"smiles": "CCOC(=O)c1c(C)[nH]c(C)c1S(=O)(=O)N1CCN(c2ccc(F)cc2)CC1", "Potency": "inconclusive: 15.8 µM [falling, partial curve, poor fit]"}
{"smiles": "COc1ccccc1-c1nc(NC(C)=O)n[nH]1", "Potency": "inconclusive: 17.8 µM [falling, partial curve]"}
{"smiles": "CCOC(=O)Cc1csc(N/N=C\\c2ccc(N(C)C)cc2)n1", "activity change, negative = inhibition": "inconclusive: -0.306%"}
{"smiles": "COc1ccccc1-c1c(C)nn2c(N3CCN(c4ccc(Cl)cc4)CC3)cc(C)nc12", "activity change, negative = inhibition": "inactive: -5.04%"}
{"smiles": "COc1cccc(-c2nc(-c3ccncc3)no2)c1", "Potency": "inconclusive: 22.4 µM [falling, partial curve, poor fit]"}
{"smiles": "O=C(CSC1=NS(=O)(=O)c2cc(Cl)ccc2N1)Nc1ccccc1F", "activity change, negative = inhibition": "inconclusive: -12.2%"}
{"smiles": "Cn1c(SCC(=O)Nc2ccc3c(c2)oc2ccccc23)nnc1-c1ccccc1", "activity change, negative = inhibition": "inconclusive: 9.79%"}
{"smiles": "COc1cc(/C=N/n2c(C3CCCCC3)n[nH]c2=S)cc(OC)c1O", "activity change, negative = inhibition": "inconclusive: -3.85%"}
{"smiles": "COc1cccc(CN2CCN(Cc3nc4c(s3)CCCC4)CC2CCO)c1", "note": "(configuration not stated)", "activity change, negative = inhibition": "inconclusive: -4.84%"}
{"smiles": "CC(C)NC(=O)C(=O)NCCc1ccc(Cl)cc1", "activity change, negative = inhibition": "inconclusive: 12.7%"}
{"smiles": "C=CCc1cccc2cc(C(=O)NCc3ccc(C(=O)OCC)o3)c(=O)oc12", "activity change, negative = inhibition": "inconclusive: 2.76%"}
{"smiles": "Cc1ccc(NC2=CC(=O)C(=O)c3ccccc32)c(C)c1", "activity change, negative = inhibition": "inactive: -1.59%"}
{"smiles": "Cc1cccc(N(Cc2ccccc2)C(=O)c2cccc(S(=O)(=O)N3CC(C)OC(C)C3)c2)c1", "note": "(configuration not stated)", "activity change, negative = inhibition": "inconclusive: 2.98%"}
{"smiles": "CCOC(=O)NC(=S)c1ccc[nH]1", "activity change, negative = inhibition": "inconclusive: 3.54%"}
{"smiles": "c1ccc(Nc2scc(-c3ccccc3)[n+]2Cc2ccco2)cc1", "activity change, negative = inhibition": "inconclusive: -20.3%"}
{"smiles": "Cc1cccc(-n2nc([N+](=O)[O-])c(=NCc3cccnc3)n2O)c1", "activity change, negative = inhibition": "inactive: 19.6%"}
{"smiles": "O=C(CNc1cccc2ccccc12)N/N=C/c1ccc([N+](=O)[O-])o1", "activity change, negative = inhibition": "inconclusive: 11%"}
{"smiles": "Cc1n[nH]c(C)c1N1C(=O)c2cccc3c(N4CCCCCC4)ccc(c23)C1=O", "activity change, negative = inhibition": "inconclusive: -5.6%"}
{"smiles": "Cc1ccc2[nH]c3c(c2c1)CN(C(=O)CN1CCN(C(=O)c2ccco2)CC1)CC3", "activity change, negative = inhibition": "inactive: -11.5%"}
{"smiles": "Cc1nn(-c2ccccc2)c2nc(N)c(C#N)c(-c3ccc(O)c(O)c3)c12", "activity change, negative = inhibition": "inconclusive: -0.869%"}
{"smiles": "COc1ccc(-c2noc(C(C)NC(=O)c3ccco3)n2)cc1OC", "note": "(configuration not stated)", "activity change, negative = inhibition": "inactive: -0.307%"}
{"smiles": "Cc1cc(Oc2ccc3ccccc3c2)nc(SCC(=O)c2ccccc2)n1", "activity change, negative = inhibition": "inconclusive: -2.43%"}
{"smiles": "Cc1nnc(N2CCCCC2)c2ccccc12", "activity change, negative = inhibition": "inactive: -15.8%"}
{"smiles": "Cc1c(C(=O)N/N=C/C(C)C)[nH]c2c([N+](=O)[O-])cccc12", "Potency": "inconclusive: 18.4 µM [falling, single point]"}
{"smiles": "Cc1cc2cc3c(cc2nc1SCC(=O)OC(C)C)OCCO3", "activity change, negative = inhibition": "inconclusive: -9.58%"}
{"smiles": "COC(=O)c1ccc(NC(=S)NN2CCCCC2c2cccnc2)cc1", "note": "(configuration not stated)", "activity change, negative = inhibition": "inconclusive: 10.3%"}
{"smiles": "CCOc1ccc(C(=O)Nc2ccc(Cc3ccncc3)cc2)cc1Br", "activity change, negative = inhibition": "inconclusive: -1.29%"}
{"smiles": "Cc1cc(N2CCC(C)CC2)nc(SCC(=O)c2ccccc2)n1", "Potency": "inconclusive: 3.66 µM [rising, partial curve, poor fit]"}
{"smiles": "CC(=O)c1cccc(N2C(=NC(=O)CCc3ccccc3)SC3CS(=O)(=O)CC32)c1", "note": "(configuration not stated)", "activity change, negative = inhibition": "inconclusive: 0.0914%"}
{"smiles": "COc1ccccc1-c1n[nH]c(=S)n1-c1ccccc1", "Potency": "inconclusive: 20 µM [falling, single point]"}
{"smiles": "CNC(=S)N/N=C/c1cc(C)ccc1C", "Potency": "inconclusive: 35.5 µM [falling, single point]"}
{"smiles": "CCC(C)n1c(SCC(=O)NC2CCCC2)nc2ccccc2c1=O", "note": "(configuration not stated)", "activity change, negative = inhibition": "inactive: 0.581%"}
{"smiles": "Cc1ccc(/C=N/NC(=O)CSc2ccccn2)o1", "activity change, negative = inhibition": "inconclusive: 11.6%"}
{"smiles": "CN(Cc1ccc(F)cc1)C(=O)COc1ccc2ccccc2c1", "activity change, negative = inhibition": "inconclusive: -16.1%"}
{"smiles": "CNC(=S)NNC(=O)c1cccn(Cc2ccc(Cl)c(Cl)c2)c1=O", "activity change, negative = inhibition": "inconclusive: 1.62%"}
{"smiles": "O=C(NCC1(c2ccccc2)CCCC1)C1(c2ccccc2)CCCC1", "Potency": "inconclusive: 10.3 µM [rising, partial curve]"}
{"smiles": "CCN1C(=O)/C(=C\\c2cccs2)C(C(=O)OC)=C1C", "activity change, negative = inhibition": "inconclusive: 29.9%"}
{"smiles": "CSCCC1NC(=O)N(CC(=O)N2N=C(c3ccc(Cl)cc3)CC2c2ccco2)C1=O", "note": "(configuration not stated)", "activity change, negative = inhibition": "inconclusive: -0.28%"}
{"smiles": "Cc1cc(C)cc(-n2c(SC(C)C(=O)NCc3ccc4c(c3)OCO4)nc3ccccc3c2=O)c1", "note": "(configuration not stated)", "activity change, negative = inhibition": "inconclusive: 0.285%"}
{"smiles": "CC1(c2nnc(Cc3ccccc3)o2)CC(c2ccccc2[N+](=O)[O-])=NO1", "note": "(configuration not stated)", "activity change, negative = inhibition": "inactive: 4.86%"}
{"smiles": "CC(=O)c1cc(C#N)c(Oc2cccc(C(F)(F)F)c2)nc1C", "activity change, negative = inhibition": "inconclusive: 11.2%"}
{"smiles": "CCC(C)C(NC(=O)c1ccccc1NC(=O)c1ccccc1)C(=O)O", "note": "(configuration not stated)", "Potency": "inconclusive: 22.4 µM [falling, single point]"}
{"smiles": "CCCn1nc(C(=O)NNC(=O)CSC(C)C(=O)Nc2cc(C)on2)c2ccccc2c1=O", "note": "(configuration not stated)", "activity change, negative = inhibition": "inactive: -2.74%"}
{"smiles": "COc1ccccc1NC(=O)c1sc2nc(Cc3ccccc3)cc(C(F)(F)F)c2c1N", "activity change, negative = inhibition": "inconclusive: -0.388%"}
{"smiles": "CC1=C(C(N)=O)C(c2cccc(C)c2)n2nc(-c3ccc(Cl)cc3)nc2N1", "note": "(configuration not stated)", "Potency": "inconclusive: 31.6 µM [falling, single point]"}
{"smiles": "c1ccc(C2c3[nH]c4ccccc4c3CCN2Cc2cccn2-c2ccccn2)nc1", "note": "(configuration not stated)", "activity change, negative = inhibition": "inconclusive: -11.6%"}
{"smiles": "Cc1ccccc1OCC(=O)NNC(=O)c1ccc(-n2cncn2)c([N+](=O)[O-])c1", "activity change, negative = inhibition": "inconclusive: -0.258%"}
{"smiles": "CCOc1ccc(NC2=C(Cl)C(=O)N(Cc3ccccc3)C2=O)cc1", "activity change, negative = inhibition": "inconclusive: -25.2%"}
{"smiles": "CCC(CC)C(=O)Nc1cccc(C(=O)c2ccccc2)c1", "activity change, negative = inhibition": "inconclusive: 14%"}
{"smiles": "COC(=O)c1cnn(-c2ccc(F)cc2F)c1/C=N/NC(N)=S", "activity change, negative = inhibition": "inconclusive: 9.42%"}
{"smiles": "COc1ccc(/C(=N\\O)c2nccc3cc(OC)c(OC)cc23)cc1OC", "Potency": "inconclusive: 35.5 µM [falling, partial curve, poor fit]"}
{"smiles": "Cc1cccc(-n2c(-c3csc(C)c3)n[nH]c2=S)c1", "activity change, negative = inhibition": "inconclusive: -0.707%"}
{"smiles": "Cc1ccc(C(O)P(=O)(OCc2ccccc2)c2ccc(N(C)C)cc2)cc1", "note": "(configuration not stated)", "activity change, negative = inhibition": "inconclusive: -15.4%"}
{"smiles": "COc1ccc(CCNC(=O)CN2CCN(c3ccccc3Cl)CC2)cc1", "activity change, negative = inhibition": "inconclusive: -28.8%"}
{"smiles": "O=C1NN(c2ccc(Cl)c(Cl)c2)C(=O)/C1=C/c1ccc(-c2ccccc2C(=O)O)o1", "activity change, negative = inhibition": "inconclusive: 0.0605%"}
{"smiles": "Cc1sc(=NC(=O)c2ccco2)n(C)c1-c1ccc(F)cc1", "activity change, negative = inhibition": "inconclusive: 8.47%"}
{"smiles": "COc1ccc(C(=O)N2CCCN(C)CC2)cc1S(=O)(=O)N(C)Cc1ccccc1", "activity change, negative = inhibition": "inactive: 2.71%"}
{"smiles": "Cc1nn(-c2ccccc2)nc1C(=O)Nc1nnc(C(F)(F)F)s1", "activity change, negative = inhibition": "inactive: -2.58%"}
{"smiles": "COc1cc(C(=O)Oc2ccccc2N)cc(OC)c1OC", "Potency": "inconclusive: 20.6 µM [falling, single point]"}
{"smiles": "O=C(CS(=O)(=O)c1cn(Cc2ccc(F)cc2)c2ccccc12)N1CCOCC1", "activity change, negative = inhibition": "inconclusive: -1.82%"}
{"smiles": "COc1ccc(-c2ccnc3nc(N4CCOCC4)nn23)cc1", "activity change, negative = inhibition": "inactive: 7.89%"}
{"smiles": "Cc1ccc(Oc2ccc(-c3nc(N)nc(N)n3)cc2)cc1", "activity change, negative = inhibition": "inconclusive: -0.254%"}
{"smiles": "CCOC(=O)CN(C(=O)CSc1nnc(CNc2ccc(F)cc2)n1CC)c1ccc(F)cc1", "Potency": "inconclusive: 20.6 µM [falling, single point]"}
{"smiles": "NNC(=O)c1cn2ccccc2n1", "Potency": "inconclusive: 25.1 µM [falling, single point]"}
{"smiles": "C/C(=N\\NC(=O)c1c(C)nc2ccccn12)c1ccc(C(C)(C)C)cc1", "activity change, negative = inhibition": "inactive: 3.23%"}
{"smiles": "O=C(N/N=C/c1ccncc1)c1nc2ccccc2c(=O)[nH]1", "activity change, negative = inhibition": "inconclusive: -18.3%"}
{"smiles": "c1ccc(-c2nc(-n3nc4ccccc4n3)nc3ccccc23)cc1", "activity change, negative = inhibition": "inconclusive: 10.6%"}
{"smiles": "CS(=O)(=O)N(Cc1ccc(C(=O)NN=C2CCCCCC2)cc1)c1ccccc1", "Potency": "inconclusive: 18.4 µM [falling, single point]"}
{"smiles": "O=C(Nc1ccccc1Cl)C1CCCN(S(=O)(=O)c2ccc(F)cc2)C1", "note": "(configuration not stated)", "activity change, negative = inhibition": "inconclusive: -0.485%"}
{"smiles": "CN(C)c1ccc(CNc2ncc(Br)cc2Br)cc1", "Potency": "inconclusive: 17.8 µM [rising, partial curve, poor fit]"}
{"smiles": "CCOC(=O)Cc1csc(NC(=O)CCS(=O)(=O)Cc2ccccc2)n1", "activity change, negative = inhibition": "inconclusive: 18.6%"}
{"smiles": "Cc1cc(C)n2nc3nc(N4CCCCC4)nc(-c4ccco4)c3c2n1", "activity change, negative = inhibition": "inactive: -1.45%"}
